Test results taken from the supplement of paper PMC12823440, “Inhibitors supercharge kinase turnover through native proteolytic circuits” (Nature, 2025).
This is one part of the list. Hit calls seldom repeat between salt and free forms of one compound.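 In K562 cells expressing nanoluciferase-fused kinases, luminescence was recorded at 4 h intervals between 2 and 18 h, normalized as percent of control with DMSO at 100% and a positive control at 0%. A significant (2 sigma) signal drop marks a time point as decreased. The authors' rule for a hit is not shown and takes in more than the number of time points.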

Protein sequences, listed by entry. Tags and fused reporters are not part of them. Lines headed by an entry give the natural chain unless they say otherwise; changes in a name come on top.
UniProt Q9Y616: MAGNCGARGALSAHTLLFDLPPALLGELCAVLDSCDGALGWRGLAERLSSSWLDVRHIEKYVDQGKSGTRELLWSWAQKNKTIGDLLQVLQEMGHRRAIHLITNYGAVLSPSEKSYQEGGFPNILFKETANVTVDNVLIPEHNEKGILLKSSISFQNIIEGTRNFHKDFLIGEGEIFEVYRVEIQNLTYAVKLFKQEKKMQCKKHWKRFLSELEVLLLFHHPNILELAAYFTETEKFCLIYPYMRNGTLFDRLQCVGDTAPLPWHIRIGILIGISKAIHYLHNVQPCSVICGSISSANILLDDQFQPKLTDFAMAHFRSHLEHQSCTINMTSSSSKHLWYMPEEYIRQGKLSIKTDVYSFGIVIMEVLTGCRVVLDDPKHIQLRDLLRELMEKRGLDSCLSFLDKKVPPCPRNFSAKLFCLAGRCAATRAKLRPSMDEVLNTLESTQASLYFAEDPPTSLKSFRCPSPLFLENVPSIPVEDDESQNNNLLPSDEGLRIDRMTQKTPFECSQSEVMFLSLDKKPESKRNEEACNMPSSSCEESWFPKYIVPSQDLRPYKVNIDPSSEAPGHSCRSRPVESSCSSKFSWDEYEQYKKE
UniProt P23458: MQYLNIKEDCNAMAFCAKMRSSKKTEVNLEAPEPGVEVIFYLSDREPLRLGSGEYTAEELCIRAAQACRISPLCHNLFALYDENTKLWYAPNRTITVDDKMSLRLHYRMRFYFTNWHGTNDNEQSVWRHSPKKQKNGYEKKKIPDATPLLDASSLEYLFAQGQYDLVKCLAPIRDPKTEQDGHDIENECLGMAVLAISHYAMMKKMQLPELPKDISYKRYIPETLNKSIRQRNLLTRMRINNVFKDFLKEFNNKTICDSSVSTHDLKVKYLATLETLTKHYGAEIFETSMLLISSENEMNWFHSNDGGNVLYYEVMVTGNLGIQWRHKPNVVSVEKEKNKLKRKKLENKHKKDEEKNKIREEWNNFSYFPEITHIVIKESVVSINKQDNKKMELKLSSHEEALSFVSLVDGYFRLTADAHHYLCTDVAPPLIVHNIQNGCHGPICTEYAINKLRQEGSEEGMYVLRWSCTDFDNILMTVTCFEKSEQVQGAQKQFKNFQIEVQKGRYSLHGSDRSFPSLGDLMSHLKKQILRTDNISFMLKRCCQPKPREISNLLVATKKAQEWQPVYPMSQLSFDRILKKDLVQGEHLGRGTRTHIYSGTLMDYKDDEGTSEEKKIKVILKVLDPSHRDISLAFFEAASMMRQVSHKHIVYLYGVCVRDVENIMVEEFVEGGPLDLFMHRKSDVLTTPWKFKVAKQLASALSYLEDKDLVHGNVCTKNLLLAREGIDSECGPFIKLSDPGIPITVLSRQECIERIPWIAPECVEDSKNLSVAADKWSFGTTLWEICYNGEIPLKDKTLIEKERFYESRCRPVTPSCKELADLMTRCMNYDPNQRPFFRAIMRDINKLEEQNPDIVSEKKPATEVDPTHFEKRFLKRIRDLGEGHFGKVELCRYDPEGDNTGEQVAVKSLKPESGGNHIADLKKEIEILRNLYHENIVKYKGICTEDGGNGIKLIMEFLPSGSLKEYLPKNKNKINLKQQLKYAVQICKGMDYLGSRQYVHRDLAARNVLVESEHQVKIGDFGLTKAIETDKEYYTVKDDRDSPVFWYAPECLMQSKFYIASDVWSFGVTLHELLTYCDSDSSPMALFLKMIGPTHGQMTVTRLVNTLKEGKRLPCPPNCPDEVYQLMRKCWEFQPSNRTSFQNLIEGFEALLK
UniProt P28482, whole entry: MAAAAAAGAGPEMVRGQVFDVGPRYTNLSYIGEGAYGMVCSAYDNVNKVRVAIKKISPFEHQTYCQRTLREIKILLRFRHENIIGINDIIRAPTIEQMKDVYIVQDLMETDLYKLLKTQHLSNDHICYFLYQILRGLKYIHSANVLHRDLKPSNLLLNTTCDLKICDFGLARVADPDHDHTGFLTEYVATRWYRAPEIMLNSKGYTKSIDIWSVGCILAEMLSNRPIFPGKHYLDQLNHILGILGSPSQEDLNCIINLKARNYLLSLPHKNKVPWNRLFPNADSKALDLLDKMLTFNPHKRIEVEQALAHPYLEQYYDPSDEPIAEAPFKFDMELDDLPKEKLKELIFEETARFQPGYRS
UniProt P49137, whole entry, looked up: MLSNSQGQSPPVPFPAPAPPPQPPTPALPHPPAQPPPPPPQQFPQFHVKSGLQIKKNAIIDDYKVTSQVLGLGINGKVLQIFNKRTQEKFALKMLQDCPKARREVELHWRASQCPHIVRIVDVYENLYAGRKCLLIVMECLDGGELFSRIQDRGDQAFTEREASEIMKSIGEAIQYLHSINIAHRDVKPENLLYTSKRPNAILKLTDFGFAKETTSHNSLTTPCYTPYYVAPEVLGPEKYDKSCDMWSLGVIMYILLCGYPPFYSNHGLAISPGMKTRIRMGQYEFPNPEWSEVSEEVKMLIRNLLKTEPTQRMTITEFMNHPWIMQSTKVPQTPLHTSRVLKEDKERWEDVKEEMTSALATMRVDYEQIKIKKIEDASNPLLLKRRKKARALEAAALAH
UniProt Q9BUB5: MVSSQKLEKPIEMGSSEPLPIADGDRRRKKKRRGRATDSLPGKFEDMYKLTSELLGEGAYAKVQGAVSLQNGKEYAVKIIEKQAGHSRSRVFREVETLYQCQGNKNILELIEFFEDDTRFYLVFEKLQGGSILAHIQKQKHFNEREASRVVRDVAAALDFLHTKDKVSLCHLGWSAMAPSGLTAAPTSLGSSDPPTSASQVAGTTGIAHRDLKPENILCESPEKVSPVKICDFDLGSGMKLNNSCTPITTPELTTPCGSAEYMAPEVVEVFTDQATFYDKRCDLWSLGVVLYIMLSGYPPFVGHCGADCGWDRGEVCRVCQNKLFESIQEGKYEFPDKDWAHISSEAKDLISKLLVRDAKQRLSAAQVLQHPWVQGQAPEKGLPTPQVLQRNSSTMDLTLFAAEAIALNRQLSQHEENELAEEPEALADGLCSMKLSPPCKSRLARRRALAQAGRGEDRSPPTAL
UniProt Q16620, whole entry, looked up: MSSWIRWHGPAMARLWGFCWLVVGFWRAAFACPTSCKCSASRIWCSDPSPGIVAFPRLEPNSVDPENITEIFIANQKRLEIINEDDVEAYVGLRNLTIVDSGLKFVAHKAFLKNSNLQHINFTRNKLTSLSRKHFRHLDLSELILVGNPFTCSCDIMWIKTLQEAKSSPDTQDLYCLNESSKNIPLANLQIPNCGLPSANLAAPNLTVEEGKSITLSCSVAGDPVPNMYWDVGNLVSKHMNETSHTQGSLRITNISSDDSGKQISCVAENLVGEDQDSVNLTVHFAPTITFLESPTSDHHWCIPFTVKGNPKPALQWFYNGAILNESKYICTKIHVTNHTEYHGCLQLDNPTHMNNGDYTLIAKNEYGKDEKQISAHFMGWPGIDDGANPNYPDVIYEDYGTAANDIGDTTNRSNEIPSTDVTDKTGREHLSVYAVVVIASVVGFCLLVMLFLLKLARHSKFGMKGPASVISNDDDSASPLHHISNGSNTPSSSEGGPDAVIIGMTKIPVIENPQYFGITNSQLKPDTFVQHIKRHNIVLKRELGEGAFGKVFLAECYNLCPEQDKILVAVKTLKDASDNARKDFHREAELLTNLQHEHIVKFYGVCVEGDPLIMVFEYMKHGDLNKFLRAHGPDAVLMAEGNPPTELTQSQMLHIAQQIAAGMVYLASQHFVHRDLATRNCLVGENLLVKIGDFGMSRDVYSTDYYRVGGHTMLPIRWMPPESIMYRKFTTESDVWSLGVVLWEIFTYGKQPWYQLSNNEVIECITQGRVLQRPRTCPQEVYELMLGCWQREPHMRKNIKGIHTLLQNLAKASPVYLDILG
UniProt O96013: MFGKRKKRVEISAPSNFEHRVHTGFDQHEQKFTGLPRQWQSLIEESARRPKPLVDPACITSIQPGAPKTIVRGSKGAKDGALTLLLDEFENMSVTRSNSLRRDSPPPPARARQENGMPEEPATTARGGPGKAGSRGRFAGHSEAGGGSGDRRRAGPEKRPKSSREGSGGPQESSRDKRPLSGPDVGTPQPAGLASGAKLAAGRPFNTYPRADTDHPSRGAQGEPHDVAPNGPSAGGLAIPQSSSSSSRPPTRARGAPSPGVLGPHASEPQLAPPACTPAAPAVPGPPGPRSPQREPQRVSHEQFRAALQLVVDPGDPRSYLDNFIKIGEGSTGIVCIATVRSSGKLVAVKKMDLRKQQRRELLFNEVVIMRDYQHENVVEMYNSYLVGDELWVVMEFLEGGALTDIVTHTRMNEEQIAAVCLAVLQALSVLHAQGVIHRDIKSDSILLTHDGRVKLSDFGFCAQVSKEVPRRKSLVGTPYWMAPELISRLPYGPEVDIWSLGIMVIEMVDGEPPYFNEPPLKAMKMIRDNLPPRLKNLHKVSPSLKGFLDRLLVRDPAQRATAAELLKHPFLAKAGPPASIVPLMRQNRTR
UniProt Q96KB5: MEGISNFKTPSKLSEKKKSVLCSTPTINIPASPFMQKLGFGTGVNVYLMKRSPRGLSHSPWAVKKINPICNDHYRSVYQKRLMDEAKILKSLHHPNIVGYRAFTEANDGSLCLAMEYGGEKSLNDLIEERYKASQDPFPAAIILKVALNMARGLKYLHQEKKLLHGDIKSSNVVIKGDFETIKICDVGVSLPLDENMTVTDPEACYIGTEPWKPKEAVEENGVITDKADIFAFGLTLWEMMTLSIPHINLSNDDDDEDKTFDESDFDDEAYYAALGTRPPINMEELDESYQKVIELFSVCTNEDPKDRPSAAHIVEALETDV
UniProt P09619, whole entry: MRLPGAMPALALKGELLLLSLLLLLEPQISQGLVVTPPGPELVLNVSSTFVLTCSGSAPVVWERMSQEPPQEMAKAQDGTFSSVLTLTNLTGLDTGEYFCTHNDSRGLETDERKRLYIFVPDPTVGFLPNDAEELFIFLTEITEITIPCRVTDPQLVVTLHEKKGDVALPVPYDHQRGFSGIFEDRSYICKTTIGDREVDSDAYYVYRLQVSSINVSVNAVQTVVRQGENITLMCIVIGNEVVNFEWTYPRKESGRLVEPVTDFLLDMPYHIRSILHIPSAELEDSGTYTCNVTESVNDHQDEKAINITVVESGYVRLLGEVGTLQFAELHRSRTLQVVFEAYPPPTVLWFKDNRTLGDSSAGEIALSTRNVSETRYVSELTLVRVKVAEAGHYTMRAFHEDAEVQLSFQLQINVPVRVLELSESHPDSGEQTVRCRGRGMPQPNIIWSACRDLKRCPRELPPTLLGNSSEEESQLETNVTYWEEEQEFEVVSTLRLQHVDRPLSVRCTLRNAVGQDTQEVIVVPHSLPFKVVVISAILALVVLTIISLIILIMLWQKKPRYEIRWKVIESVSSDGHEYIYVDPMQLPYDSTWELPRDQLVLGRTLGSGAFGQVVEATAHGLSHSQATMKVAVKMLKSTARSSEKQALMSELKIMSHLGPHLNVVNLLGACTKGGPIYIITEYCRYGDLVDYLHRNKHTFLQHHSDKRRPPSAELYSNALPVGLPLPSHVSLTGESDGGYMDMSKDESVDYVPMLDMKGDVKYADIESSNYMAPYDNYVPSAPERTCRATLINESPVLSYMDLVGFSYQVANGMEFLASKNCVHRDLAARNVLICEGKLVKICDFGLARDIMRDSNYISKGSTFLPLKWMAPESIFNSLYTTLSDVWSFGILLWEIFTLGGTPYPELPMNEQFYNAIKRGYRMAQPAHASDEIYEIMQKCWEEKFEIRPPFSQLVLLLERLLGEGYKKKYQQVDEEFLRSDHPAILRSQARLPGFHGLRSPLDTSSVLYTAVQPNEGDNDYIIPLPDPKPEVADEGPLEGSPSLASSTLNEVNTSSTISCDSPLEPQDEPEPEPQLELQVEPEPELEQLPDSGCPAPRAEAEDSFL
UniProt Q15118, whole entry, looked up: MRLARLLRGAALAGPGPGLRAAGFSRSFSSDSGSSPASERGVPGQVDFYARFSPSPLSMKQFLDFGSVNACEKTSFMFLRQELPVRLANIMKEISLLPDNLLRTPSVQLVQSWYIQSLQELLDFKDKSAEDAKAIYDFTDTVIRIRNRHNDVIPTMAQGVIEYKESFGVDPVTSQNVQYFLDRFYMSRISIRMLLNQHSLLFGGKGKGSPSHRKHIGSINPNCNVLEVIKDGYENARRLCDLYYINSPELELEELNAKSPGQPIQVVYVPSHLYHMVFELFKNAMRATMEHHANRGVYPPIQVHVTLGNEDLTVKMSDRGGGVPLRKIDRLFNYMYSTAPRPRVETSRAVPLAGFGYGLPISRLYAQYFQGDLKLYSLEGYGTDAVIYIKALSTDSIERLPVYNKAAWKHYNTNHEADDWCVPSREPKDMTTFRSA

Assays:
Assay in all cases: kinase-Nluc reporter destabilization hit call (1 = scored as downregulated) (binary); higher = compound decreases kinase abundance
Details in all cases: K562; 2-18 h
IRAK3 = IRAK3 (UniProt Q9Y616)
JAK1 = JAK1 (UniProt P23458)
LCK = LCK (UniProt P06239)
LIMK1 = LIMK1 (UniProt P53667)
LIMK2 = LIMK2 (UniProt P53671)
LMTK2 = LMTK2 (UniProt Q8IWU2)
LYN = LYN (UniProt P07948)
MAP2K1 = MAP2K1 (UniProt Q02750)
MAP2K2 = MAP2K2 (UniProt P36507)
MAP4K2 = MAP4K2 (UniProt Q12851)
MAPK1 = MAPK1 (UniProt P28482)
MAPK4 = MAPK4 (UniProt P31152)
MAPKAPK2 = MAPKAPK2 (UniProt P49137)
MKNK1 = MKNK1 (UniProt Q9BUB5)
NTRK2 = NTRK2 (UniProt Q16620)
NTRK3 = NTRK3 (UniProt Q16288)
PAK4 = PAK4 (UniProt O96013)
PBK = PBK (UniProt Q96KB5)
PDGFRB = PDGFRB (UniProt P09619)
PDK1 = PDK1 (UniProt Q15118)

Measured: kinase-Nluc reporter destabilization hit call

CS[C@@]1(C(=O)Nc2ccc3[nH]nc(-c4ccc(OC(C)C)nc4)c3c2)CCN(CC(=O)N2CC=C(c3ccc(-c4ncn(C)n4)cc3)CC2)C1 (2.5 µM)
inactive: IRAK3 = 0 | JAK1 = 0 | LCK 0 | LIMK1 = 0 | LIMK2 = 0 | LMTK2 = 0 | LYN 0 | MAP2K1 = 0 | MAP2K2 = 0 | MAP4K2 = 0 | MAPK1 = 0 | MAPK4 = 0 | MAPKAPK2 = 0 | MKNK1 = 0 | NTRK2 = 0 | NTRK3 = 0 | PAK4 = 0 | PBK 0 | PDGFRB 0 | PDK1 = 0

COc1ccc(CN2CCC(c3ccc4nc(C(=O)N5CCN(Cc6ccc(C(F)(F)F)cc6)CC5)[nH]c4c3)CC2)cn1 (2.5 µM)
inactive: IRAK3 = 0 | JAK1 = 0 | LCK 0 | LIMK1 = 0 | LIMK2 = 0 | LMTK2 = 0 | LYN 0 | MAP2K1 = 0 | MAP2K2 = 0 | MAP4K2 = 0 | MAPK1 = 0 | MAPK4 = 0 | MAPKAPK2 = 0 | MKNK1 = 0 | NTRK2 = 0 | NTRK3 = 0 | PAK4 = 0 | PBK 0 | PDGFRB 0 | PDK1 = 0

COc1cc2nccc(Nc3cccc(Oc4ccccc4)c3)c2cc1OC (2.5 µM)
inactive: IRAK3 = 0 | JAK1 = 0 | LCK 0 | LIMK1 = 0 | LIMK2 = 0 | LMTK2 = 0 | LYN 0 | MAP2K1 = 0 | MAP2K2 = 0 | MAP4K2 = 0 | MAPK1 = 0 | MAPK4 = 0 | MAPKAPK2 = 0 | MKNK1 = 0 | NTRK2 = 0 | NTRK3 = 0 | PAK4 = 0 | PBK 0 | PDGFRB 0 | PDK1 = 0

C[C@@H]1CN(Cc2ccc(F)cc2)[C@@H](C)CN1C(=O)c1cc2c(C(=O)C(=O)N(C)C)cn(C)c2cc1Cl [Talmapimod] (10 µM)
inactive: IRAK3 = 0 | JAK1 = 0 | LCK 0 | LIMK1 = 0 | LIMK2 = 0 | LMTK2 = 0 | LYN 0 | MAP2K1 = 0 | MAP2K2 = 0 | MAP4K2 = 0 | MAPK1 = 0 | MAPK4 = 0 | MAPKAPK2 = 0 | MKNK1 = 0 | NTRK2 = 0 | NTRK3 = 0 | PAK4 = 0 | PBK 0 | PDGFRB 0 | PDK1 = 0

S=C(NCc1ccc2c(c1)OCO2)N1CCN(c2ncnc3c2oc2ccccc23)CC1 [Amuvatinib] (2.5 µM)
inactive: IRAK3 = 0 | JAK1 = 0 | LCK 0 | LIMK1 = 0 | LIMK2 = 0 | LMTK2 = 0 | LYN 0 | MAP2K1 = 0 | MAP2K2 = 0 | MAP4K2 = 0 | MAPK1 = 0 | MAPK4 = 0 | MAPKAPK2 = 0 | MKNK1 = 0 | NTRK2 = 0 | NTRK3 = 0 | PAK4 = 0 | PBK 0 | PDGFRB 0 | PDK1 = 0

Cc1cc2c(F)c(Oc3ncnn4cc(OC[C@@H](C)OC(=O)[C@H](C)N)c(C)c34)ccc2[nH]1 [Brivanib (alaninate)] (10 µM)
inactive: IRAK3 = 0 | JAK1 = 0 | LCK 0 | LIMK1 = 0 | LIMK2 = 0 | LMTK2 = 0 | LYN 0 | MAP2K1 = 0 | MAP2K2 = 0 | MAP4K2 = 0 | MAPK1 = 0 | MAPK4 = 0 | MAPKAPK2 = 0 | MKNK1 = 0 | NTRK2 = 0 | NTRK3 = 0 | PAK4 = 0 | PBK 0 | PDGFRB 0 | PDK1 = 0

COc1cc2ncnc(Nc3cc(Br)c(O)c(Br)c3)c2cc1OC (2.5 µM)
inactive: IRAK3 = 0 | JAK1 = 0 | LCK 0 | LIMK1 = 0 | LIMK2 = 0 | LMTK2 = 0 | LYN 0 | MAP2K1 = 0 | MAP2K2 = 0 | MAP4K2 = 0 | MAPK1 = 0 | MAPK4 = 0 | MAPKAPK2 = 0 | MKNK1 = 0 | NTRK2 = 0 | NTRK3 = 0 | PAK4 = 0 | PBK 0 | PDGFRB 0 | PDK1 = 0

An excerpt from above in order of heavy-atom count, rising:
Cc1cc2c(F)c(Oc3ncnn4cc(OC[C@@H](C)OC(=O)[C@H](C)N)c(C)c34)ccc2[nH]1 [Brivanib (alaninate)] (10 µM)
inactive: IRAK3 = 0 | JAK1 = 0 | LCK 0 | LIMK1 = 0 | LIMK2 = 0 | LMTK2 = 0 | LYN 0 | MAP2K1 = 0 | MAP2K2 = 0 | MAP4K2 = 0 | MAPK1 = 0 | MAPK4 = 0 | MAPKAPK2 = 0 | MKNK1 = 0 | NTRK2 = 0 | NTRK3 = 0 | PAK4 = 0 | PBK 0 | PDGFRB 0 | PDK1 = 0

C[C@@H]1CN(Cc2ccc(F)cc2)[C@@H](C)CN1C(=O)c1cc2c(C(=O)C(=O)N(C)C)cn(C)c2cc1Cl [Talmapimod] (10 µM)
inactive: IRAK3 = 0 | JAK1 = 0 | LCK 0 | LIMK1 = 0 | LIMK2 = 0 | LMTK2 = 0 | LYN 0 | MAP2K1 = 0 | MAP2K2 = 0 | MAP4K2 = 0 | MAPK1 = 0 | MAPK4 = 0 | MAPKAPK2 = 0 | MKNK1 = 0 | NTRK2 = 0 | NTRK3 = 0 | PAK4 = 0 | PBK 0 | PDGFRB 0 | PDK1 = 0

CS[C@@]1(C(=O)Nc2ccc3[nH]nc(-c4ccc(OC(C)C)nc4)c3c2)CCN(CC(=O)N2CC=C(c3ccc(-c4ncn(C)n4)cc3)CC2)C1 (2.5 µM)
inactive: IRAK3 = 0 | JAK1 = 0 | LCK 0 | LIMK1 = 0 | LIMK2 = 0 | LMTK2 = 0 | LYN 0 | MAP2K1 = 0 | MAP2K2 = 0 | MAP4K2 = 0 | MAPK1 = 0 | MAPK4 = 0 | MAPKAPK2 = 0 | MKNK1 = 0 | NTRK2 = 0 | NTRK3 = 0 | PAK4 = 0 | PBK 0 | PDGFRB 0 | PDK1 = 0

The list continues:

CN(C)c1cc[n+](Cc2ccc(OCCOc3ccc(C[n+]4ccc(N(C)C)cc4)cc3)cc2)cc1 (10 µM)
inactive: IRAK3 = 0 | JAK1 = 0 | LCK 0 | LIMK1 = 0 | LIMK2 = 0 | LMTK2 = 0 | LYN 0 | MAP2K1 = 0 | MAP2K2 = 0 | MAP4K2 = 0 | MAPK1 = 0 | MAPK4 = 0 | MAPKAPK2 = 0 | MKNK1 = 0 | NTRK2 = 0 | NTRK3 = 0 | PAK4 = 0 | PBK 0 | PDGFRB 0 | PDK1 = 0

O=[N+]([O-])c1ccc(-c2nc(-c3ccc(F)cc3)c(-c3ccncc3)[nH]2)cc1 (10 µM)
inactive: IRAK3 = 0 | JAK1 = 0 | LCK 0 | LIMK1 = 0 | LIMK2 = 0 | LMTK2 = 0 | LYN 0 | MAP2K1 = 0 | MAP2K2 = 0 | MAP4K2 = 0 | MAPK1 = 0 | MAPK4 = 0 | MAPKAPK2 = 0 | MKNK1 = 0 | NTRK2 = 0 | NTRK3 = 0 | PAK4 = 0 | PBK 0 | PDGFRB 0 | PDK1 = 0

O=c1c(O)c(-c2ccc(O)c(O)c2)oc2cc(O)c(O)c(O)c12 [Quercetagetin] (10 µM)
inactive: IRAK3 = 0 | JAK1 = 0 | LCK 0 | LIMK1 = 0 | LIMK2 = 0 | LMTK2 = 0 | LYN 0 | MAP2K1 = 0 | MAP2K2 = 0 | MAP4K2 = 0 | MAPK1 = 0 | MAPK4 = 0 | MAPKAPK2 = 0 | MKNK1 = 0 | NTRK2 = 0 | NTRK3 = 0 | PAK4 = 0 | PBK 0 | PDGFRB 0 | PDK1 = 0

CC1=CC(=O)C(C(C)C)=C/C1=N/OC(=O)c1ccccc1C [Poloxin] (2.5 µM)
inactive: IRAK3 = 0 | JAK1 = 0 | LCK 0 | LIMK1 = 0 | LIMK2 = 0 | LMTK2 = 0 | LYN 0 | MAP2K1 = 0 | MAP2K2 = 0 | MAP4K2 = 0 | MAPK1 = 0 | MAPK4 = 0 | MAPKAPK2 = 0 | MKNK1 = 0 | NTRK2 = 0 | NTRK3 = 0 | PAK4 = 0 | PBK 0 | PDGFRB 0 | PDK1 = 0

CN(C)C(=O)c1cc2cnc(Nc3ccc(N4CCN(CCCCNC(=O)COc5cccc6c5C(=O)N(C5CCC(=O)NC5=O)C6=O)CC4)cn3)nc2n1C1CCCC1 (stereo not given) (10 µM)
inactive: IRAK3 = 0 | JAK1 = 0 | LCK 0 | LIMK1 = 0 | LIMK2 = 0 | LMTK2 = 0 | LYN 0 | MAP2K1 = 0 | MAP2K2 = 0 | MAP4K2 = 0 | MAPK1 = 0 | MAPK4 = 0 | MAPKAPK2 = 0 | MKNK1 = 0 | NTRK2 = 0 | NTRK3 = 0 | PAK4 = 0 | PBK 0 | PDGFRB 0 | PDK1 = 0

COc1ccc(-c2cc(=O)c3c(O)cc(O)cc3o2)cc1-c1c(O)cc(O)c2c(=O)cc(-c3ccc(O)cc3)oc12 [Bilobetin] (2.5 µM)
inactive: IRAK3 = 0 | JAK1 = 0 | LCK 0 | LIMK1 = 0 | LIMK2 = 0 | LMTK2 = 0 | LYN 0 | MAP2K1 = 0 | MAP2K2 = 0 | MAP4K2 = 0 | MAPK1 = 0 | MAPK4 = 0 | MAPKAPK2 = 0 | MKNK1 = 0 | NTRK2 = 0 | NTRK3 = 0 | PAK4 = 0 | PBK 0 | PDGFRB 0 | PDK1 = 0

O=C1Cc2ccccc2N1 [Oxindole] (10 µM)
inactive: IRAK3 = 0 | JAK1 = 0 | LCK 0 | LIMK1 = 0 | LIMK2 = 0 | LMTK2 = 0 | LYN 0 | MAP2K1 = 0 | MAP2K2 = 0 | MAP4K2 = 0 | MAPK1 = 0 | MAPK4 = 0 | MAPKAPK2 = 0 | MKNK1 = 0 | NTRK2 = 0 | NTRK3 = 0 | PAK4 = 0 | PBK 0 | PDGFRB 0 | PDK1 = 0

CC1(C)CN(C(=O)c2ccc(-c3cccc4nc(NC(=O)C5CC5)nn34)cc2)C1 [Solcitinib] (10 µM)
inactive: IRAK3 = 0 | JAK1 = 0 | LCK 0 | LIMK1 = 0 | LIMK2 = 0 | LMTK2 = 0 | LYN 0 | MAP2K1 = 0 | MAP2K2 = 0 | MAP4K2 = 0 | MAPK1 = 0 | MAPK4 = 0 | MAPKAPK2 = 0 | MKNK1 = 0 | NTRK2 = 0 | NTRK3 = 0 | PAK4 = 0 | PBK 0 | PDGFRB 0 | PDK1 = 0

CS(=O)(=O)c1ccc([C@@H](CC2CCCC2)C(=O)Nc2nccs2)cc1 (10 µM)
inactive: IRAK3 = 0 | JAK1 = 0 | LCK 0 | LIMK1 = 0 | LIMK2 = 0 | LMTK2 = 0 | LYN 0 | MAP2K1 = 0 | MAP2K2 = 0 | MAP4K2 = 0 | MAPK1 = 0 | MAPK4 = 0 | MAPKAPK2 = 0 | MKNK1 = 0 | NTRK2 = 0 | NTRK3 = 0 | PAK4 = 0 | PBK 0 | PDGFRB 0 | PDK1 = 0

Cc1ccc(C2CC(=O)NC(SCC(=O)Nc3nccs3)=C2C#N)cc1 (stereo not given) [Necrostatin-34] (10 µM)
inactive: IRAK3 = 0 | JAK1 = 0 | LCK 0 | LIMK1 = 0 | LIMK2 = 0 | LMTK2 = 0 | LYN 0 | MAP2K1 = 0 | MAP2K2 = 0 | MAP4K2 = 0 | MAPK1 = 0 | MAPK4 = 0 | MAPKAPK2 = 0 | MKNK1 = 0 | NTRK2 = 0 | NTRK3 = 0 | PAK4 = 0 | PBK 0 | PDGFRB 0 | PDK1 = 0

CC1=C(C#N)C(c2ccc3[nH]nc(C)c3c2)C(C#N)=C(C)N1 (10 µM)
inactive: IRAK3 = 0 | JAK1 = 0 | LCK 0 | LIMK1 = 0 | LIMK2 = 0 | LMTK2 = 0 | LYN 0 | MAP2K1 = 0 | MAP2K2 = 0 | MAP4K2 = 0 | MAPK1 = 0 | MAPK4 = 0 | MAPKAPK2 = 0 | MKNK1 = 0 | NTRK2 = 0 | NTRK3 = 0 | PAK4 = 0 | PBK 0 | PDGFRB 0 | PDK1 = 0
